These are yes or no findings as the source states them, for the method shown. In cells and extracts the contact can be indirect. Some binding calls cover weakened binding; strength is not graded here. For some assays here: Where a sequence is shown, tags or fusion partners need not be part of it. One block for each molecule: values may come before it.
Assays:
[1] = target: ankyrin-G (endogenous, mouse cortex) (mouse (endogenous in adult mouse cortex)) (UniProt G5E8K5); assay: co-IP; adult mouse cortical lysates in Na-sucrose buffer with 1% IGEPAL CA-630, 250-500 ug lysate; IP with anti-ankyrin-G (clone 463, H-215, S.E. Lux) or, in reverse, anti-IKKα/β (H-470) on protein A/G-agarose; controls anti-IgG, anti-MAP2, anti-α-Tubulin; Western blot
[2] = target: MAP2 (microtubule-associated protein-2) (mouse (endogenous in adult mouse cortex)) (UniProt P20357); assay: as above
[3] = target: ankyrin-G (endogenous, mouse cortex) (mouse (endogenous in adult mouse cortex)) (UniProt G5E8K5); assay: proximity ligation; formaldehyde-fixed mature primary mouse cortical neurons, transfected or not with ankG-eGFP and IKKβ plasmids; mouse anti-ankyrin-G and rabbit anti-IKKα/β, Duolink; proximity about 40 nm
[4] = target: ankyrinG-eGFP (ankyrinG::enhanced green fluorescent protein), 270 kDa variant (UniProt O70511); assay: as above
[5] = target: ankyrinG-eGFP (ankyrinG::enhanced green fluorescent protein), 270 kDa variant (UniProt O70511); assay: co-IP; SH-SY5Y cells transfected for 2 days with ankG-eGFP or eGFP and IKKβ-FLAG vectors; lysis in Co-IP buffer (50 mM Tris-Cl pH 7.5, 15 mM EGTA, 100 mM NaCl, 0.1% Triton X-100); anti-GFP (B-2) on protein A/G-agarose or dynabeads protein-G; detection with anti-Flag

Sequences of proteins named here, by UniProt entry; tags and fusion partners are left off. A change or cut given only in a name is not applied to a line headed by its entry.
UniProt G5E8K5: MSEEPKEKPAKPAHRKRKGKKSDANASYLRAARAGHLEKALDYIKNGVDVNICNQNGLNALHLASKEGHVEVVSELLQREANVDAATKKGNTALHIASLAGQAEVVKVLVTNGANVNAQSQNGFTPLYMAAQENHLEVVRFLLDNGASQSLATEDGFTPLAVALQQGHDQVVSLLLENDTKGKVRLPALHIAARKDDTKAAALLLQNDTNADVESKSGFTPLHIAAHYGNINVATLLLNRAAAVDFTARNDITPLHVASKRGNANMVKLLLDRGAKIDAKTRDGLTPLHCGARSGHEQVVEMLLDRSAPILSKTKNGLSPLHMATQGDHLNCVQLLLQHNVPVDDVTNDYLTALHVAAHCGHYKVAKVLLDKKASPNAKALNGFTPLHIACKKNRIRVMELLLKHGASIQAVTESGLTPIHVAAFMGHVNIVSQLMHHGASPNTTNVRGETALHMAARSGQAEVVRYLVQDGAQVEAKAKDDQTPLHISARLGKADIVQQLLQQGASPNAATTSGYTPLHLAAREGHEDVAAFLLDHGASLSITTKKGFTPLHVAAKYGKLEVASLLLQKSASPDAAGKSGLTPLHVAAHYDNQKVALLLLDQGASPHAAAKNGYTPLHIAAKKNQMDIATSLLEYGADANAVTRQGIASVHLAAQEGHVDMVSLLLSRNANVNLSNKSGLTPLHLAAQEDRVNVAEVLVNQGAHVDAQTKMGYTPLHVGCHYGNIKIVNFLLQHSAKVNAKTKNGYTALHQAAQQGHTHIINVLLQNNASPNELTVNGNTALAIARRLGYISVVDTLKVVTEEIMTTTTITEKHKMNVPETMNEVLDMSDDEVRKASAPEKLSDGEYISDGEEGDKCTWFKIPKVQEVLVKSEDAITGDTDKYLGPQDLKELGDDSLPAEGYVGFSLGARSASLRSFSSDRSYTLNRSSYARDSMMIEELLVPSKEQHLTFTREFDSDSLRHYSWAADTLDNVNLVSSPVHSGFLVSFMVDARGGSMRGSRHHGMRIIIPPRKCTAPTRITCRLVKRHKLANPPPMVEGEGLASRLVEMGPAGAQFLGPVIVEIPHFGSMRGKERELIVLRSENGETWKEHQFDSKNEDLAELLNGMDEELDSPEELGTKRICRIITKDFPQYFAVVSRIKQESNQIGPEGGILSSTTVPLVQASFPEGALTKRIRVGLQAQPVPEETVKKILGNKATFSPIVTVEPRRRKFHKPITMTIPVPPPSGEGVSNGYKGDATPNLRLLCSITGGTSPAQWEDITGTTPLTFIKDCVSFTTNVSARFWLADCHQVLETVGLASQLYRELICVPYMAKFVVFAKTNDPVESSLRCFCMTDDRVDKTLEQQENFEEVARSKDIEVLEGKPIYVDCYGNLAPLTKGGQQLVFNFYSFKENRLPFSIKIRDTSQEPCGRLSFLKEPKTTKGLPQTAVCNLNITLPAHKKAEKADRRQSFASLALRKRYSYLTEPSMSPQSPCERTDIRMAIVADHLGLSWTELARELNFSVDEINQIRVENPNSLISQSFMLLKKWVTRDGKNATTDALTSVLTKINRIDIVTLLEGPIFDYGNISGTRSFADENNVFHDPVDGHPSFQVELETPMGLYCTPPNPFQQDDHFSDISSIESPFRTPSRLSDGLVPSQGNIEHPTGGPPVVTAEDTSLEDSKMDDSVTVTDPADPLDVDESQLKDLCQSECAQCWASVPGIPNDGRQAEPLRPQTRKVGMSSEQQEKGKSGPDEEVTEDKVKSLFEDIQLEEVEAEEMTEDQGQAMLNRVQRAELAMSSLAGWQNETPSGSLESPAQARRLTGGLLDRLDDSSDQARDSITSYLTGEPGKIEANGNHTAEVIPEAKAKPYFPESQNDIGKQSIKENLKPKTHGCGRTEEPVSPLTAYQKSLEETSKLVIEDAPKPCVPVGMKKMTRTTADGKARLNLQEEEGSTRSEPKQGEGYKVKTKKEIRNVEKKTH
UniProt P20357: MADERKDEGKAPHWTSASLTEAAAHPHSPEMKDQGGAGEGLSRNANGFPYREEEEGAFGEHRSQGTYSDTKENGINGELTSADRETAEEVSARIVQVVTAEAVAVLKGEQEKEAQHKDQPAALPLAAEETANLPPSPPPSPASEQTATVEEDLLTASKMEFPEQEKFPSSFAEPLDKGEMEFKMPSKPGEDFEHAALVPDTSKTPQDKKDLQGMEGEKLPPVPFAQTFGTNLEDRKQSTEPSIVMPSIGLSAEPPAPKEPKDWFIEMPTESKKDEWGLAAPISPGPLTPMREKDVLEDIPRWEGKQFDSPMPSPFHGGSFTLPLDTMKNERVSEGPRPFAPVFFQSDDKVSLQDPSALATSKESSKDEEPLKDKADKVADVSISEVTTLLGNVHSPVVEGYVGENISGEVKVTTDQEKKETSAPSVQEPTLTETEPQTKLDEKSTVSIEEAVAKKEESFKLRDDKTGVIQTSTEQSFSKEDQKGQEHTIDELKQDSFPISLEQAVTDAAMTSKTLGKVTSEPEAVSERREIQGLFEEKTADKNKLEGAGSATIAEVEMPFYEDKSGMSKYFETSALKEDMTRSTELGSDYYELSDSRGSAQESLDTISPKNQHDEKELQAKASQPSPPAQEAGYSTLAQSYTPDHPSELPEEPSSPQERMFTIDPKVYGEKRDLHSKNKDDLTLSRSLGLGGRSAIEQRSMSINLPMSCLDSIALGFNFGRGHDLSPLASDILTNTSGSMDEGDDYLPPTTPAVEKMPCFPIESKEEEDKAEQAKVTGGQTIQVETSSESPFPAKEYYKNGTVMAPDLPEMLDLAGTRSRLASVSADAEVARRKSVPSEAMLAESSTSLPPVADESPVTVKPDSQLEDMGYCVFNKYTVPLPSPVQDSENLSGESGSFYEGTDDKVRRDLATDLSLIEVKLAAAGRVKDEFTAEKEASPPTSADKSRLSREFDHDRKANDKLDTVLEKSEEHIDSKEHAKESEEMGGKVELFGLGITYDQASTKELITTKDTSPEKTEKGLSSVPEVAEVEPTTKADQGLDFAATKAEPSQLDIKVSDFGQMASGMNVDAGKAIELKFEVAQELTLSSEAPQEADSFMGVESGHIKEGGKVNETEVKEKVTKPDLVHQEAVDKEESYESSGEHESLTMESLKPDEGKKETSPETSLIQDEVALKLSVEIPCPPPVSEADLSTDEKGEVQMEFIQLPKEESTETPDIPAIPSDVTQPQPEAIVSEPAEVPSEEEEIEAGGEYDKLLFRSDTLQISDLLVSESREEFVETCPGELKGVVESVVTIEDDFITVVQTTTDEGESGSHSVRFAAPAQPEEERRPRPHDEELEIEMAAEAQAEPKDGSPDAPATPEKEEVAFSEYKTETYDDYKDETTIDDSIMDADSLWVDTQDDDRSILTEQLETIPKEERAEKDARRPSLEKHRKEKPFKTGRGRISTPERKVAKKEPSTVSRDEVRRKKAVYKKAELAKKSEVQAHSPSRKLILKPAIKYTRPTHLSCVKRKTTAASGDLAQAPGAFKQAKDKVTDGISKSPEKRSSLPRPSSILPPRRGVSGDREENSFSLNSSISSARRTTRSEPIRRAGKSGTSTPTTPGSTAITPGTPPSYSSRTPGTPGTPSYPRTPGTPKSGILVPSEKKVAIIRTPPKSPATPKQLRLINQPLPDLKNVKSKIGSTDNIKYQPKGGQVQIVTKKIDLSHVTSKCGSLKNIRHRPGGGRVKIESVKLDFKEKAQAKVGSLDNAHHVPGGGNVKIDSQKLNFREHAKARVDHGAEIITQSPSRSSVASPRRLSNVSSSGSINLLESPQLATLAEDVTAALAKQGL
UniProt Q60680: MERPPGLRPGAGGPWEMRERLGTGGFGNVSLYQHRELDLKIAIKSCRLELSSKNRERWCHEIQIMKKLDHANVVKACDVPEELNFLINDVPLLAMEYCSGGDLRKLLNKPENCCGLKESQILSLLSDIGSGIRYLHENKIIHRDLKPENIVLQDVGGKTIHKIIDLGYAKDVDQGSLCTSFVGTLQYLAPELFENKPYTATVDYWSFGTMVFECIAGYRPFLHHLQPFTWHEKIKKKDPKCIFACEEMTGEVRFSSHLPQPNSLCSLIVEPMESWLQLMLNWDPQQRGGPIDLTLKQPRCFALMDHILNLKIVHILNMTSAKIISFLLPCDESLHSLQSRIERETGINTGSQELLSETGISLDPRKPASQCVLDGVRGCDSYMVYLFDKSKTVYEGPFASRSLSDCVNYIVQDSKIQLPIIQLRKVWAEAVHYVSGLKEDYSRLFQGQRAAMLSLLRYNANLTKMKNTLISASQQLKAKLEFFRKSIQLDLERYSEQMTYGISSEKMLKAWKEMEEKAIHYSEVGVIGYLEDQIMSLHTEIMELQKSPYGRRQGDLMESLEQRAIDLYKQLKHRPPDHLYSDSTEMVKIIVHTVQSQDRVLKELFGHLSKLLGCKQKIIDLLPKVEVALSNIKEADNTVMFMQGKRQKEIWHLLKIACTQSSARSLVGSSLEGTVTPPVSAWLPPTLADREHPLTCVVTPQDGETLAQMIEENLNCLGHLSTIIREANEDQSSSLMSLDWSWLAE

binding [1]: binds | binding [2]: no binding | binding [3]: binds
Molecule: IKKα/β (IKK-complex; pan-IKKα/β immunoreactivity) (from UniProt Q60680 1-745; O88351 1-757)

binding [4]: binds | binding [5]: binds
B1: IKKβ-Flag (Flag-tagged IKKβ) (enzyme, UniProt O14920 1-756)
chain: MSWSPSLTTQTCGAWEMKERLGTGGFGNVIRWHNQETGEQIAIKQCRQELSPRNRERWCLEIQIMRRLTHPNVVAARDVPEGMQNLAPNDLPLLAMEYCQGGDLRKYLNQFENCCGLREGAILTLLSDIASALRYLHENRIIHRDLKPENIVLQQGEQRLIHKIIDLGYAKELDQGSLCTSFVGTLQYLAPELLEQQKYTVTVDYWSFGTLAFECITGFRPFLPNWQPVQWHSKVRQKSEVDIVVSEDLNGTVKFSSSLPYPNNLNSVLAERLEKWLQLMLMWHPRQRGTDPTYGPNGCFKALDDILNLKLVHILNMVTGTIHTYPVTEDESLQSLKARIQQDTGIPEEDQELLQEAGLALIPDKPATQCISDGKLNEGHTLDMDLVFLFDNSKITYETQISPRPQPESVSCILQEPKRNLAFFQLRKVWGQVWHSIQTLKEDCNRLQQGQRAAMMNLLRNNSCLSKMKNSMASMSQQLKAKLDFFKTSIQIDLEKYSEQTEFGITSDKLLLAWREMEQAVELCGRENEVKLLVERMMALQTDIVDLQRSPMGRKQGGTLDDLEEQARELYRRLREKPRDQRTEGDSQEMVRLLLQAIQSFEKKVRVIYTQLSKTVVCKQKALELLPKVEEVVSLMNEDEKTVVRLQEKRQKELWNLLKIACSKVRGPVSGSPDSMNASRLSQPGQLMSQPSTASNSLPEPAKKSEELVAEAHNLCTLLENAIQDTVREQDQSFTALDWSWLQTEEEEHSCLEQAS
